Publication PMC6615643
Results are given in words; binding and its absence hold for the method and conditions named. In cells and extracts the contact can be indirect. Some entries that bind do so weakly or less than the wild type.

Sequences of proteins named here, by UniProt entry; tags and fusion partners are left off.
UniProt Q9Y5X1: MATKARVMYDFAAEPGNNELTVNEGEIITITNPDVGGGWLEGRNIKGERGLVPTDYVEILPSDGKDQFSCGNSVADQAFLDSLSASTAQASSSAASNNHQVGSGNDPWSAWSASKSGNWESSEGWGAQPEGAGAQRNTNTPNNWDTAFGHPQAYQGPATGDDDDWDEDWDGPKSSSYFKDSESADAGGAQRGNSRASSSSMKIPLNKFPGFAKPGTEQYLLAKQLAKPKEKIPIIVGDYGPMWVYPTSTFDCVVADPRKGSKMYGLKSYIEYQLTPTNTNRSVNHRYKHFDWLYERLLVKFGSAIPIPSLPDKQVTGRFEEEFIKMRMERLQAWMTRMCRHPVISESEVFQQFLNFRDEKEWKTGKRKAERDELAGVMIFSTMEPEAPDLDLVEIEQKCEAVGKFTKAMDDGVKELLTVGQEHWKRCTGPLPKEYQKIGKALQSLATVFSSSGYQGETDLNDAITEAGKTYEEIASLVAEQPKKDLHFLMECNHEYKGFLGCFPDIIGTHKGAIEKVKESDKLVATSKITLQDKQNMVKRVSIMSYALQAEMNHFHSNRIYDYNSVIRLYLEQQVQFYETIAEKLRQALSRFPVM

Molecular target: EspF, Flag-tagged, translocated into HeLa cells from EPEC-espF+EspF (enteropathogenic Escherichia coli O127:H6 E2348/69) (UniProt B7UM88)
Assay: co-IP; HeLa cells infected with EPEC-espF, espF+EspF, espF+EspF mod-wt or espF+EspF mod-RD; EspF immunoprecipitated with anti-FLAG antibodies; SNX proteins detected by SDS-PAGE and Western blotting

Question: “sorting nexin 9 (SNX9) (from UniProt Q9Y5X1 1-595)” was tested. Which binding did it give?
Answer: binds

B1: SNX18 (protein, UniProt Q96RF0 1-628)
chain: MALRARALYDFRSENPGEISLREHEVLSLCSEQDIEGWLEGVNSRGDRGLFPASYVQVIRAPEPGPAGDGGPGAPARYANVPPGGFEPLPVAPPASFKPPPDAFQALLQPQQAPPPSTFQPPGAGFPYGGGALQPSPQQLYGGYQASQGSDDDWDDEWDDSSTVADEPGALGSGAYPDLDGSSSAGVGAAGRYRLSTRSDLSLGSRGGSVPPQHHPSGPKSSATVSRNLNRFSTFVKSGGEAFVLGEASGFVKDGDKLCVVLGPYGPEWQENPYPFQCTIDDPTKQTKFKGMKSYISYKLVPTHTQVPVHRRYKHFDWLYARLAEKFPVISVPHLPEKQATGRFEEDFISKRRKGLIWWMNHMASHPVLAQCDVFQHFLTCPSSTDEKAWKQGKRKAEKDEMVGANFFLTLSTPPAAALDLQEVESKIDGFKCFTKKMDDSALQLNHTANEFARKQVTGFKKEYQKVGQSFRGLSQAFELDQQAFSVGLNQAIAFTGDAYDAIGELFAEQPRQDLDPVMDLLALYQGHLANFPDIIHVQKGKAWPLEQVIWSVLCRLKGATLTAVPLWVSESYSTGEEASRDVDAWVFSLECKLDCSTGSFLLEYLALGNEYSFSKVQRVPLMTVLSF
Question: With B1 as the molecule, how does the binding read?
Answer: binds

B2: SNX33 (protein, UniProt Q8WV41 1-574)
chain: MALKGRALYDFHSENKEEISIQQDEDLVIFSETSLDGWLQGQNSRGETGLFPASYVEIVRSGISTNHADYSSSPAGSPGAQVSLYNSPSVASPARSGGGSGFLSNQGSFEEDDDDDWDDWDDGCTVVEEPRAGGLGTNGHPPLNLSYPGAYPSQHMAFRPKPPLERQDSLASAKRGSVVGRNLNRFSCFVRSGVEAFILGDVPMMAKIAETYSIEMGPRGPQWKANPHPFACSVEDPTKQTKFKGIKSYISYKLTPTHAASPVYRRYKHFDWLYNRLLHKFTVISVPHLPEKQATGRFEEDFIEKRKRRLILWMDHMTSHPVLSQYEGFQHFLSCLDDKQWKMGKRRAEKDEMVGASFLLTFQIPTEHQDLQDVEDRVDTFKAFSKKMDDSVLQLSTVASELVRKHVGGFRKEFQKLGSAFQAISHSFQMDPPFCSEALNSAISHTGRTYEAIGEMFAEQPKNDLFQMLDTLSLYQGLLSNFPDIIHLQKGAFAKVKESQRMSDEGRMVQDEADGIRRRCRVVGFALQAEMNHFHQRRELDFKHMMQNYLRQQILFYQRVGQQLEKTLRMYDNL
Question: How did the binding turn out when B2 was run?
Answer: binds
